Experimental data published in paper PMC11816266.
Results are given in words; binding and its absence hold for the method and conditions named. In cells and extracts the contact can be indirect. Some entries that bind do so weakly or less than the wild type.

Protein sequences, listed by entry. Tags and fused reporters are not part of them. Residues count along the entry.
UniProt Q9NZQ7, residues 19-290: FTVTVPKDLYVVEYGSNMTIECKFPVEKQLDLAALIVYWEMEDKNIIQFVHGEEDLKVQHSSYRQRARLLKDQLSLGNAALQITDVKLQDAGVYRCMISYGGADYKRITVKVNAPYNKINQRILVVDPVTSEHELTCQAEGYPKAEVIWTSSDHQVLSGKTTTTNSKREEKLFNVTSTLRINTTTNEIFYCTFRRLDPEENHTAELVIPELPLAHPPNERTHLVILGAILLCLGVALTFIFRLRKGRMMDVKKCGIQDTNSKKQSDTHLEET
UniProt Q9NZM1: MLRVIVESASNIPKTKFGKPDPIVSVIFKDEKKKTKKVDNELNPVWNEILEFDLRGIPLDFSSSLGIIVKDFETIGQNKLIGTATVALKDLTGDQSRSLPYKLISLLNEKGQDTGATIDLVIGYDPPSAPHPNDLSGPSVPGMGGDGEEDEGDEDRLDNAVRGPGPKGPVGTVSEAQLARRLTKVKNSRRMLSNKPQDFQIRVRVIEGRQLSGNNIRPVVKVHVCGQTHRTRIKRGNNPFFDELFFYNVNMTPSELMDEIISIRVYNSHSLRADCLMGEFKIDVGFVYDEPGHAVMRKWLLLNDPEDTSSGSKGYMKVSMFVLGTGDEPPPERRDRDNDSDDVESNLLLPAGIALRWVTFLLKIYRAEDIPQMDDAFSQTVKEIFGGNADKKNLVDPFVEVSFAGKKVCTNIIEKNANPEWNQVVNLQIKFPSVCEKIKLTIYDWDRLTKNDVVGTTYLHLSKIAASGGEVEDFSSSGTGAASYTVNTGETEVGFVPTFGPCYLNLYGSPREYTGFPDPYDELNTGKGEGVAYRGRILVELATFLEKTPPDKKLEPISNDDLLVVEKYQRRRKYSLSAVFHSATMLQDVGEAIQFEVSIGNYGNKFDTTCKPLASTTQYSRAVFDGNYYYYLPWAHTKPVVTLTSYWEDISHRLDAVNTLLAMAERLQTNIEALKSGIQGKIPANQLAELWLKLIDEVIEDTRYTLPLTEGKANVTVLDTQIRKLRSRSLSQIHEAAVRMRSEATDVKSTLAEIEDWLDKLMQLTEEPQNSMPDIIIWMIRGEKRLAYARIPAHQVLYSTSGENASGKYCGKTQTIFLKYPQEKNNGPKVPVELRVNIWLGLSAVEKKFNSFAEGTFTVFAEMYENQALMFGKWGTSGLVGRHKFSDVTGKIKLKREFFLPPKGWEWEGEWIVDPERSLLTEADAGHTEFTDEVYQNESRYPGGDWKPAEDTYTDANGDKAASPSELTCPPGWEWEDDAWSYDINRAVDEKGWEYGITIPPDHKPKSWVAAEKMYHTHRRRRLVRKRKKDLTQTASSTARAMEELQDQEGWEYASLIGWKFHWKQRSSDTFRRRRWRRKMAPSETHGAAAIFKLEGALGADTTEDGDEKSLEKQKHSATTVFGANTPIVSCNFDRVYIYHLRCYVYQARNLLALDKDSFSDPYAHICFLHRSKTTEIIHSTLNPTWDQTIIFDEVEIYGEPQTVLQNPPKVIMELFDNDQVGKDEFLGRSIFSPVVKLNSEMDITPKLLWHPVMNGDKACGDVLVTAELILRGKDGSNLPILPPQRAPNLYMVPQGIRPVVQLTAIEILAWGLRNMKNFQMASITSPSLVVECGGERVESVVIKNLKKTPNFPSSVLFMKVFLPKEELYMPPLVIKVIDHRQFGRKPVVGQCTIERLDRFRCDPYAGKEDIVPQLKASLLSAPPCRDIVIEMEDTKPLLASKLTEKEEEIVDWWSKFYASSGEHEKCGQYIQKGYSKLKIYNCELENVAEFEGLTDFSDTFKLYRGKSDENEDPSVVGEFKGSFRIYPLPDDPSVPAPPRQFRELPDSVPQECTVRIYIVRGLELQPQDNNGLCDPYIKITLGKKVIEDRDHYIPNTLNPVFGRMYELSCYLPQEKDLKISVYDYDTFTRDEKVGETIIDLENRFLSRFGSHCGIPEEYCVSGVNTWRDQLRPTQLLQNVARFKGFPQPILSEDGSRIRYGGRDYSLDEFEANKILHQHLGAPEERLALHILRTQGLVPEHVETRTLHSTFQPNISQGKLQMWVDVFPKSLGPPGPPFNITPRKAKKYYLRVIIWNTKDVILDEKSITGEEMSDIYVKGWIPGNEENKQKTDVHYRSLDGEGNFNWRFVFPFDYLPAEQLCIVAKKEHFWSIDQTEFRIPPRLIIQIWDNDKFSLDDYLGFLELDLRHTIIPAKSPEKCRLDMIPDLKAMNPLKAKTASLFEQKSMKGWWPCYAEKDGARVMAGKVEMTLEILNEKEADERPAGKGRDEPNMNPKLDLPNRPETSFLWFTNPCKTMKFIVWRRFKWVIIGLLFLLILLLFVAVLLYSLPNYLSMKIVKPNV
UniProt P35968, residues 20-1356: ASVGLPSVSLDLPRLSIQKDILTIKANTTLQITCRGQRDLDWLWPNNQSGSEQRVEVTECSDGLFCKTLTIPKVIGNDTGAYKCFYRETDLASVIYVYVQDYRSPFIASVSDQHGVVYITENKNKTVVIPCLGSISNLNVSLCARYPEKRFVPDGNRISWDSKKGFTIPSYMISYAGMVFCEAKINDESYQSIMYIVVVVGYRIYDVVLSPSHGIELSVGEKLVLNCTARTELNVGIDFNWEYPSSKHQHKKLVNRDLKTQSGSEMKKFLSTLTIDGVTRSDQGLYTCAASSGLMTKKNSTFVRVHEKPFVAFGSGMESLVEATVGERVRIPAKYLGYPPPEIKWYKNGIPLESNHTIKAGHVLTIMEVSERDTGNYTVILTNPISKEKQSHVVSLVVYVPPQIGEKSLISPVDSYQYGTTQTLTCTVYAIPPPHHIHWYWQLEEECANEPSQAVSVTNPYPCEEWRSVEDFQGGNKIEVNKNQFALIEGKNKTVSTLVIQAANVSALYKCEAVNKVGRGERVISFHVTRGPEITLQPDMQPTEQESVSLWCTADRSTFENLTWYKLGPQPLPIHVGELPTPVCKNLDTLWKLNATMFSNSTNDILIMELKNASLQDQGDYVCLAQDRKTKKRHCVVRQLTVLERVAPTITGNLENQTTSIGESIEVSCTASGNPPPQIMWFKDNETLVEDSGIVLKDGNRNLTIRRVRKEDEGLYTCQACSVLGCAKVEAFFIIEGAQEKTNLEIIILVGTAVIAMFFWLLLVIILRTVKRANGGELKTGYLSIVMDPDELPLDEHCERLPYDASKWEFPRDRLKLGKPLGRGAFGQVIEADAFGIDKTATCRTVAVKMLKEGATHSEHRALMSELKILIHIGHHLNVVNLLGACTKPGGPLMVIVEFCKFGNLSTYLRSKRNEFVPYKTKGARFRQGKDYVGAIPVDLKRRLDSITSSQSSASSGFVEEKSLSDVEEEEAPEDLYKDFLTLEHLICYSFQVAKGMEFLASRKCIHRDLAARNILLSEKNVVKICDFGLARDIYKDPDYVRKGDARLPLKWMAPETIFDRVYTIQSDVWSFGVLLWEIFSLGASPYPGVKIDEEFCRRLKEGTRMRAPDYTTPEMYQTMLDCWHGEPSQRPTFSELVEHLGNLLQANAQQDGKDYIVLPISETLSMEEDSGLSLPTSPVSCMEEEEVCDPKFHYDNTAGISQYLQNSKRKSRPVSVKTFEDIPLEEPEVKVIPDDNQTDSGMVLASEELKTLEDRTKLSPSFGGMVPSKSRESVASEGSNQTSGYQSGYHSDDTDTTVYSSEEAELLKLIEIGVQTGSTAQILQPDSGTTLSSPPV

What was measured:
[1] = target: Flag-PD-L1 (CD274, human, 3×FLAG) (human) (UniProt Q9NZQ7); assay: co-IP; RKO cells stably expressing the Flag-tagged bait; lysis in 0.5% NP-40 lysis buffer (50 mmol/L Tris-HCl pH 8.0, 150 mmol/L NaCl, 0.5% Triton X-100); 2 mg protein in 1 mL; anti-Flag antibody and Protein A + G magnetic beads overnight at 4 °C; IgG as control; Western blot; for Flag-MYOF also after apatinib or PBS for 24 h (interaction reduced with apatinib)
[2] = target: Flag-MYOF (Myoferlin, human, 3×FLAG) (human) (UniProt Q9NZM1); assay: as above

Myoferlin (MYOF), endogenous in RKO cells (from UniProt Q9NZM1 1-2061)
binding [1]: binds

VEGFR2 (KDR) (from UniProt P35968 20-1356) (receptor)
binding [2]: binds
